This is one part of the list. The main result of the screen is listed elsewhere. These columns were measured beside it and carry no call. Compounds called inactive in the main read-out are mostly missing here. The note in brackets gives the kind of curve behind each potency; many fits are weak.
Experiment: qHTS Assay to Find Inhibitors of Chronic Active B-Cell Receptor Signaling
Conditions: ABC-DLBCL IkBa-CBG/CBR reporter, luminescence ratio (green luciferase fused to IkBa over red control in TMD8 lymphoma cells), 4 h
Procedure, shortened: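 Compounds up to 46 uM were incubated four hours with TMD8 cells whose green CBG68 luciferase is fused to IkappaBalpha; red CBR luminescence normalised the signal, and concentration-effect curves were fitted to fusion, red and ratio data.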

[1] = measured here: CBR red luminescence, cell number
[2] = measured here: IkBa-CBG green luminescence

| Structure (SMILES) | AC50 [1] | AC50 [2] |
| --- | --- | --- |
| O=[N+]([O-])/C(C(Cl)=C(Cl)Cl)=C(/NC1CC1)Sc1ccccc1 | 35.5 µM [falling, single point] | – |
| C(=C\c1ccccn1)/c1ccncc1 | 5.62 µM [rising, single point] | – |
| Cc1cccc(NC(=O)C2CCN(S(=O)(=O)c3c(C)c(C)cc(C)c3C)CC2)n1 | 9.2 µM [falling, partial curve] | 9.2 µM [rising, partial curve, poor fit] |
| COc1cc(NC(=O)CSc2ccccc2)c(C(=O)O)cc1OC | 29.1 µM [falling, single point] | – |
| COC(=O)n1c(SC)nc2ccccc21 | 25.1 µM [falling, partial curve, poor fit] | – |
| COc1ccc(OC)c2c(N3CC(C)OC(C)C3)cc(C(F)(F)F)nc12 (configuration not stated) | 3.16 µM [rising, full curve, poor fit] | – |
| O=C(Nc1nccs1)c1nc(-c2ccccc2)n(-c2ccccc2)n1 | 3.55 µM [rising, partial curve, poor fit] | – |
| COCC(=O)N(c1ccc(C(C)C)cc1)C1C=CS(=O)(=O)C1 (configuration not stated) | 6.51 µM [rising, single point] | 6.51 µM [falling, partial curve, poor fit] |
| O=C(N=C1SCC(=O)N1c1ccccc1)c1ccco1 | 29.1 µM [rising, single point] | – |
| FC(F)(F)c1ccccc1NC(=S)N/N=C1\CC2CC=CC12 (configuration not stated) | 35.5 µM [falling, partial curve, poor fit] | 35.5 µM [falling, single point] |
| CCOc1cccc2sc(Nc3nc4ccc(NC(C)=O)cc4s3)nc12 | 10.3 µM [falling, partial curve] | – |
| CCOc1cc(C2c3c(-c4ccccc4)n[nH]c3C(=O)N2c2ccc(C(=O)O)cc2)ccc1O (configuration not stated) | 7.08 µM [falling, partial curve] | – |
| COc1ccc(NC(=O)Nc2cccc3cccnc23)cc1 | 2.82 µM [falling, partial curve] | – |
| CCC1S/C(=N/N=C/c2ccco2)N(Cc2ccccc2C)C1=O (configuration not stated) | 35.5 µM [falling, single point] | – |
| Cc1ccc(S(=O)(=O)n2nnc3ccccc32)c(C)c1C | 35.5 µM [falling, single point] | – |
| COc1cccc(Cn2c(-c3nonc3N)nc3ccccc32)c1 | 29.1 µM [rising, partial curve, poor fit] | – |
| COC(=O)C1=C(C)NC(=O)C1(NC(=O)CN1CCCC1=O)C(F)(F)F (configuration not stated) | 1.03 µM [rising, full curve, poor fit] | – |
| COC(=O)N/N=C/c1cn(CCOc2cccc(OC)c2)c2ccccc12 | 35.5 µM [falling, single point] | – |
| CCCc1nc2oc3cc(OC)ccc3c(=O)c2c(=O)n1CCc1ccccc1 | 35.5 µM [falling, single point] | – |
| Cc1cc(C)cc(NC(=S)N(Cc2ccc(Br)cc2)Cc2ccc(C(=O)O)cc2)c1 | 12.6 µM [falling, partial curve] | – |
| Cc1ccc(NC(=S)NCc2ccc3c(c2)OCO3)cc1 | 1.64 µM [rising, partial curve, poor fit] | – |

| Structure (SMILES) | AC50 [1] | AC50 [2] |
| --- | --- | --- |
| Cc1cccc([C@@H]2[C@@H]3C(=O)N(Cc4ccccc4)C(=O)[C@@H]3[C@]3(C)C(=O)N(c4ccc(C(F)(F)F)cc4)C(=O)N23)c1 | 11.2 µM [falling, single point] | – |
| Cn1c(SCC(=O)c2cc3ccccc3o2)nnc1-c1ccccc1 | 2.91 µM [falling, full curve] | – |
| COc1ccc(NC(=O)CC(c2ccc(F)cc2)c2ccc(OC(C)C)cc2)cc1 (configuration not stated) | 29.1 µM [rising, single point] | – |
| CCN(CCCNC(=O)CN1C(=O)COc2ccc(S(=O)(=O)N3CCC(C)CC3)cc21)Cc1ccccc1 | 35.5 µM [falling, single point] | – |
| CCOc1ccccc1NC(=S)NC(=O)C1CC1 | 0.562 µM [falling, full curve, poor fit] | – |
| C[C@H](NC(=O)c1[nH]cnc1C(=O)Nc1ccccc1)C(=O)OC(C)(C)C | 1.58 µM [falling, partial curve] | – |
| CC(OC(=O)c1cc(=O)[nH]c2ccccc12)C(=O)NC1CCCC1 (configuration not stated) | 13 µM [rising, single point] | – |
| O=C(Nc1cccnc1Cl)c1cc(-c2ccccc2O)on1 | 1.78 µM [falling, full curve] | – |
| N#CC(=C1CCCC1)c1nc(-c2ccccc2O)cs1 | 12.6 µM [falling, single point] | – |
| N#CCSc1nc2[nH]ncc2c(=O)n1-c1ccccc1Br | 2 µM [falling, full curve] | – |
| CC(Sc1nnc(-c2ccc(Cl)cc2Cl)n1Cc1ccccc1)C(=O)Nc1nccs1 (configuration not stated) | 12.6 µM [falling, single point] | – |
| COc1ccc(-c2[nH]c(-c3ccc(C)cc3)nc2SCC(=O)NC2CCCC2)cc1 | 4.61 µM [rising, full curve, poor fit] | – |
| O=C(N/N=C/c1ccc([N+](=O)[O-])o1)c1ccc(NS(=O)(=O)c2cccs2)cc1 | 17.8 µM [falling, single point] | – |
| CC1N(C(=O)N2CCOCC2)CCN1S(=O)(=O)c1cccc(C(F)(F)F)c1 (configuration not stated) | 14.1 µM [rising, partial curve, poor fit] | – |
| CCc1ccccc1N(CC)C(=O)c1cn(CC)c(=O)c2cc(OC)c(OC)cc12 | 22.4 µM [falling, single point] | – |
| COc1ccccc1C(=O)N/N=C/c1c[nH]c2ccccc12 | 0.355 µM [falling, full curve, poor fit] | – |
| CC(=O)Nc1ccc(-c2csc(Nc3ccc(Cl)cn3)n2)cc1 | 0.316 µM [falling, partial curve, poor fit] | – |
| CC(C(=O)O)C1SC(=O)NC1=O (configuration not stated) | 0.366 µM [falling, full curve, poor fit] | – |
| Cc1ccc(-c2noc(CSc3ccccc3)n2)cc1 | 16.4 µM [falling, single point] | – |
| Cc1ccc(-c2nc(CSCC(=O)Nc3cc(C)on3)c(C)o2)cc1 | 7.94 µM [falling, partial curve, poor fit] | – |
| Cc1ccc(OCc2nc(-c3cccnc3)no2)cc1C | 2.51 µM [rising, single point] | – |

Reprinted from above (12 entries):

| Structure (SMILES) | AC50 [1] | AC50 [2] |
| --- | --- | --- |
| Cc1cccc([C@@H]2[C@@H]3C(=O)N(Cc4ccccc4)C(=O)[C@@H]3[C@]3(C)C(=O)N(c4ccc(C(F)(F)F)cc4)C(=O)N23)c1 | 11.2 µM [falling, single point] | – |
| Cn1c(SCC(=O)c2cc3ccccc3o2)nnc1-c1ccccc1 | 2.91 µM [falling, full curve] | – |
| COc1ccc(NC(=O)CC(c2ccc(F)cc2)c2ccc(OC(C)C)cc2)cc1 (configuration not stated) | 29.1 µM [rising, single point] | – |
| CCN(CCCNC(=O)CN1C(=O)COc2ccc(S(=O)(=O)N3CCC(C)CC3)cc21)Cc1ccccc1 | 35.5 µM [falling, single point] | – |
| CCOc1ccccc1NC(=S)NC(=O)C1CC1 | 0.562 µM [falling, full curve, poor fit] | – |
| C[C@H](NC(=O)c1[nH]cnc1C(=O)Nc1ccccc1)C(=O)OC(C)(C)C | 1.58 µM [falling, partial curve] | – |
| CC(OC(=O)c1cc(=O)[nH]c2ccccc12)C(=O)NC1CCCC1 (configuration not stated) | 13 µM [rising, single point] | – |
| O=C(Nc1cccnc1Cl)c1cc(-c2ccccc2O)on1 | 1.78 µM [falling, full curve] | – |
| N#CC(=C1CCCC1)c1nc(-c2ccccc2O)cs1 | 12.6 µM [falling, single point] | – |
| N#CCSc1nc2[nH]ncc2c(=O)n1-c1ccccc1Br | 2 µM [falling, full curve] | – |
| CC(Sc1nnc(-c2ccc(Cl)cc2Cl)n1Cc1ccccc1)C(=O)Nc1nccs1 (configuration not stated) | 12.6 µM [falling, single point] | – |
| COc1ccc(-c2[nH]c(-c3ccc(C)cc3)nc2SCC(=O)NC2CCCC2)cc1 | 4.61 µM [rising, full curve, poor fit] | – |

(listing goes on)

| Structure (SMILES) | AC50 [1] | AC50 [2] |
| --- | --- | --- |
| COc1cccc(OC)c1C(=O)OCC(=O)N(C)c1ccccc1 | 8.91 µM [rising, partial curve, poor fit] | – |
| CC(C)CN=Cc1c(O)c([N+](=O)[O-])cc2oc3c(c12)CCCC3 | 9.2 µM [rising, partial curve, poor fit] | – |
| O=C(CSc1nccc(=O)[nH]1)N1CCc2ccccc2C1 | 16.4 µM [falling, single point] | – |
| O=C(Nc1ccccc1)Nc1ccc(Br)c(Cl)c1 | 23.1 µM [falling, single point] | – |
| COc1ccccc1C(=O)NCc1ccc(-c2nc3ccccc3s2)cc1 | 3.26 µM [rising, full curve, poor fit] | – |
| OCCOCCNc1ncnc2c1cnn2-c1ccc(Cl)cc1 | 35.5 µM [falling, single point] | – |
| CCC(=O)Nc1cc(NC(=O)CSc2ncc(-c3ccc(F)cc3)n2Cc2ccco2)ccc1C | 22.4 µM [falling, single point] | – |
| COc1ccccc1-c1c(C)oc2c(CN3CCCC(C)C3)c(O)ccc2c1=O (configuration not stated) | 2 µM [rising, full curve, poor fit] | – |
| CN(C)CCCNc1nc(-c2ccc(Cl)cc2)nc2ccccc12 | 15.8 µM [falling, single point] | – |
| CCN(CC)c1ccc(-c2nn3c(-c4ccccc4OC)nnc3s2)cc1 | 10 µM [falling, partial curve, poor fit] | 0.794 µM [falling, full curve] |
| CC1CCC2(CC1)NC(=O)N(CC(=O)NCc1ccc(Cl)cc1)C2=O (configuration not stated) | 0.116 µM [rising, full curve, poor fit] | – |
| FC(F)(F)COc1nc(N/N=C/c2cccnc2)nc(N2CCCCC2c2ccccn2)n1 (configuration not stated) | 10 µM [falling, partial curve, poor fit] | 3.55 µM [rising, full curve, poor fit] |
| COc1ccc(Cl)c2sc(N3CCN(C(=O)c4ccco4)CC3)nc12 | 0.517 µM [rising, full curve, poor fit] | – |
| O=C(/C=C/c1ccc(-c2ccccc2)o1)c1ccccc1 | 11.6 µM [falling, partial curve, poor fit] | – |
| CCN(C)Cc1c(C(=O)N2CCc3ccccc3C2)nc2ccc(Cl)cn12 | 31.6 µM [falling, single point] | – |
| O=C(N/N=C/C(Cl)=C/c1ccc([N+](=O)[O-])cc1)C(=O)Nc1ccccc1C(=O)O | 1.12 µM [falling, full curve] | – |
| O=C(Cn1ccc(C(F)(F)F)n1)N/N=C/c1cccs1 | 29.1 µM [rising, single point] | – |
| COCCNC(=O)C(C#N)c1nc2ccccc2nc1N1CCCCCC1 (configuration not stated) | 3.16 µM [falling, partial curve, poor fit] | – |
| COc1ccc(N2C(=O)CC(Sc3nc4ccccc4s3)C2=O)cc1OC (configuration not stated) | 0.1 µM [rising, full curve, poor fit] | – |
| CCOC(=O)N1CCN(c2ccc(F)cc2[N+](=O)[O-])CC1 | 11.6 µM [rising, partial curve, poor fit] | – |
